In US11166958B2, “4-pyrazin-2-ylmethyl-morpholine derivatives and the use thereof as medicament” (Boehringer Ingelheim International GmbH, priority 2018, dated 2021):
For at least one compound, name, drawing or mass did not settle the structure. Some compounds share one wording; it may come from a single statement.

Protein sequences, listed by entry. Tags and fused reporters are not part of them. Residues count along the entry.
UniProt Q13224, 27-1484: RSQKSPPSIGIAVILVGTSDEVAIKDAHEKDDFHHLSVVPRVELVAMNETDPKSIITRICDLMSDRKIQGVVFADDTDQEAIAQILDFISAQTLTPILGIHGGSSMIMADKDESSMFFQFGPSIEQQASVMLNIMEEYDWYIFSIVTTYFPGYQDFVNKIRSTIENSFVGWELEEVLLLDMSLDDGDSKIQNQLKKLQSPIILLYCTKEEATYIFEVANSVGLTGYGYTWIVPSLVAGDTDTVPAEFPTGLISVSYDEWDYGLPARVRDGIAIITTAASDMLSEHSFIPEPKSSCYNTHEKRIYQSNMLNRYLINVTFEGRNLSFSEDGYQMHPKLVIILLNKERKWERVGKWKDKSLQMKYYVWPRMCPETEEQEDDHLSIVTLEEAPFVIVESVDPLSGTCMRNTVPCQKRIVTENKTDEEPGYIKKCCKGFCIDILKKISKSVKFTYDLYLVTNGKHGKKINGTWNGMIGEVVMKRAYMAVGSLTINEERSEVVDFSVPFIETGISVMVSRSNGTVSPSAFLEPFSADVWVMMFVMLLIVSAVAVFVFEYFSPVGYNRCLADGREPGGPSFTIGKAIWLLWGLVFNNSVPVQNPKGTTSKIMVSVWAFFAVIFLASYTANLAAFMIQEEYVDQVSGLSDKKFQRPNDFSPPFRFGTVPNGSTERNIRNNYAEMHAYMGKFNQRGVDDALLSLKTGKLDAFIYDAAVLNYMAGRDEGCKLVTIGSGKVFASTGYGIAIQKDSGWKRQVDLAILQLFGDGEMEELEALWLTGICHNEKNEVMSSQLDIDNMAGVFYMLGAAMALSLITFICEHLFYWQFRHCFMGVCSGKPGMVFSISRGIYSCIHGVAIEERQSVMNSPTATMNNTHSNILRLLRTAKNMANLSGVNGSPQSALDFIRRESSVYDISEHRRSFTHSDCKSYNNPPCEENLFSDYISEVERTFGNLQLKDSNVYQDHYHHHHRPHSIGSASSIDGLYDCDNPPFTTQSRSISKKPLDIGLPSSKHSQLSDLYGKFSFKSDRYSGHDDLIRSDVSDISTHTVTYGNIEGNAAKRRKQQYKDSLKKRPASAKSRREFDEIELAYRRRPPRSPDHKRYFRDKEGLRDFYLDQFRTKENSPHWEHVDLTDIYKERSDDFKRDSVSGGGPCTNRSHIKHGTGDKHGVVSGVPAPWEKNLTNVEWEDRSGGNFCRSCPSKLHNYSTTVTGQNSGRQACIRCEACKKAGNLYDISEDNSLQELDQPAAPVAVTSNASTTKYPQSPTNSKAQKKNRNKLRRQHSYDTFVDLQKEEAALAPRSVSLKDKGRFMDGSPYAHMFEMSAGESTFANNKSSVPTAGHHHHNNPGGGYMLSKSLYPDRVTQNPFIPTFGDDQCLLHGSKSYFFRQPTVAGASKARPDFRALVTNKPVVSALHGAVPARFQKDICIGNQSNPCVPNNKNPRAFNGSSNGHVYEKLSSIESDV

Target: NMDA NR1/NR2B receptor (Homo sapiens (Human), UniProt Q13224)
Assay: In vitro NMDA NR1/NR2B cell assay (FLIPR, intracellular calcium induced by glycine/glutamate)
Assay type: cell-based
Experimental: A human HEK293 cell line with tetracyclin-inducible expression of NMDA NR1/NR2B receptor was used as a test system for compound efficacy and potency. The cell line was purchased from ChanTest, Catalog #CT6121. Compound activity was determined by measuring the effect of compounds on intracellular calcium concentration induced by glycine/glutamate agonism in a FLIPRtetra system (Molecular Devices).
The cells were obtained as frozen cells in cryo-vials and stored until use at −150° C. Cells were grown in culture medium (DMEM/F12, 10% FBS, 5 μg/mL Blasticidin, 150 μg/mL Zeozin, 500 μg/mL Geneticin). […] For sub-culturing the cells were detached from flasks by Versene. For the assay, cells were detached, washed twice with induction medium (DMEM/F12 without glutamine, 10% FBS, 2 μg/mL Tetracycline, 2 mM Ketamine) and seeded to 384 well pure coat amine plates (Becton Dickinson, 50000 cells per well in 50 μl) 48 h prior to assay in induction medium.
The test compounds were dissolved in 100% DMSO at a concentration of 10 mM and in a first step diluted in DMSO to a concentration of 5 mM, followed by serial dilution steps in 100% DMSO. Dilution factor and number of dilution steps may vary according to needs. Typically 8 different concentrations by 1:5 dilutions were prepared in duplicate, further intermediate dilutions (1:37.5) of the substances were carried out with aqueous assay buffer (137 mM NaCl, 4 mM KCl, 1.8 mM CaCl2), 10 mM HEPES, 10 mM Glucose, pH 7.4) resulting in a compound concentration 3 times above the final test concentration and DMSO at 2.7% resulting in 0.9% final DMSO concentration in the assay.
At the assay day cells were washed 3× with assay buffer (as described above), 10 μL buffer remained in the wells after washing. […] Fluorescence (indicating the calcium influx as a result of the NR1/NR2B ion channel activation) was read on the FLIPRtetra device for 60 seconds to monitor the glutamate induced effects. […] Each assay microtiter compound dilution plate contained wells (in column 23 or 24) with DMSO controls instead of compound as controls for glycine/glutamate induced fluorescence (high controls) and wells with 1 μM of a reference NR2B NAM as low controls (Compound 22; reference: Layton, Mark E et al, ACS Chemical Neuroscience 2011, 2(7), 352-362).
The output file of the reader contains the well number and measured average fluorescence units. […] The IC50 values were calculated using the standard 4 parameter logistic regression formula. […]

In the case of `O=C(C1CN(Cc2cccc(Oc3ccccc3)c2)CCO1)N1CCOCC1` (stereo not shown) [Example 106, reference compound], the “activity on the NR1-NR2B ion channel” value is reported as “do not show any activity”.

With `CCNC(=O)C1CN(Cc2cccc(Oc3ccccc3)c2)CCO1` (stereo not shown) [Example 100, reference compound] the “activity on the NR1-NR2B ion channel” value was “do not show any activity”.

`COCCNC(=O)C1CN(Cc2cccc(Oc3ccccc3)c2)CCO1` (stereo not shown) [Example 107, reference compound] was tested, and the “activity on the NR1-NR2B ion channel” value was “do not show any activity”.

In the case of `O=C(NCc1ccccn1)C1CN(Cc2cccc(Oc3ccccc3)c2)CCO1` (stereo not shown) [Example 105, reference compound], the “activity on the NR1-NR2B ion channel” value is reported as “do not show any activity”.
